These are yes or no findings as the source states them, for the method shown. In cells and extracts the contact can be indirect. Some entries that bind do so weakly or less than the wild type.
Target: T1, liprin-β1 (mouse (endogenous in MIN6)) (UniProt Q8C8U0)
T1 sequence: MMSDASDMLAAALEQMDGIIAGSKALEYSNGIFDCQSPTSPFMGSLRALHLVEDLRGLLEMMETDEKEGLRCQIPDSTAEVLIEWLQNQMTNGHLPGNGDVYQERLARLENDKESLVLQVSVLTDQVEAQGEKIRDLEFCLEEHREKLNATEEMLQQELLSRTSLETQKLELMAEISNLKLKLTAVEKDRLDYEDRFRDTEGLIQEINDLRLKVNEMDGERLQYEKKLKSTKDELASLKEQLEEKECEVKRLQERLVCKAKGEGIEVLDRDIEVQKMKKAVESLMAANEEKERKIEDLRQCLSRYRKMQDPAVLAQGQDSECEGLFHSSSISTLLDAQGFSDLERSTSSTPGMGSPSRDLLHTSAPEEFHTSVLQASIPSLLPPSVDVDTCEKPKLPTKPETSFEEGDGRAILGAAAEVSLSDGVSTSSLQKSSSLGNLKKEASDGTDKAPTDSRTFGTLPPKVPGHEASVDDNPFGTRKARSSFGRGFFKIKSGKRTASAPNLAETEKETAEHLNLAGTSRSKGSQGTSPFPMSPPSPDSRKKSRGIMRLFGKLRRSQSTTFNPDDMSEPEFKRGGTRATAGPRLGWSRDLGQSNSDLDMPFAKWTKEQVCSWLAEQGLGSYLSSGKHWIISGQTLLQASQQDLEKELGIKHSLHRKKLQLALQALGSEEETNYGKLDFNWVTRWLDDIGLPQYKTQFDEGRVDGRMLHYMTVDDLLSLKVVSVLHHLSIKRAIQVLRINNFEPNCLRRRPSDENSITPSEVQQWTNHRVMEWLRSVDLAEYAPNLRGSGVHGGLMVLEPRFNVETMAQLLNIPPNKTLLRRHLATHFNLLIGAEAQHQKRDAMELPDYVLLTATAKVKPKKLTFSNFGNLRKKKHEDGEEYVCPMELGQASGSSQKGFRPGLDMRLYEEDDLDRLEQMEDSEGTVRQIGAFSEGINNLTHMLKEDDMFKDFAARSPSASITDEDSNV
Test: co-IP; MIN6 β-cell line; immunoprecipitation of endogenous liprin-β1 with anti-liprin-β1 antibody, IgG control; blots for liprin-α1 and KANK1; n = 3

Amino acid sequences for entries named in this document (tags omitted).
UniProt B2RXQ2: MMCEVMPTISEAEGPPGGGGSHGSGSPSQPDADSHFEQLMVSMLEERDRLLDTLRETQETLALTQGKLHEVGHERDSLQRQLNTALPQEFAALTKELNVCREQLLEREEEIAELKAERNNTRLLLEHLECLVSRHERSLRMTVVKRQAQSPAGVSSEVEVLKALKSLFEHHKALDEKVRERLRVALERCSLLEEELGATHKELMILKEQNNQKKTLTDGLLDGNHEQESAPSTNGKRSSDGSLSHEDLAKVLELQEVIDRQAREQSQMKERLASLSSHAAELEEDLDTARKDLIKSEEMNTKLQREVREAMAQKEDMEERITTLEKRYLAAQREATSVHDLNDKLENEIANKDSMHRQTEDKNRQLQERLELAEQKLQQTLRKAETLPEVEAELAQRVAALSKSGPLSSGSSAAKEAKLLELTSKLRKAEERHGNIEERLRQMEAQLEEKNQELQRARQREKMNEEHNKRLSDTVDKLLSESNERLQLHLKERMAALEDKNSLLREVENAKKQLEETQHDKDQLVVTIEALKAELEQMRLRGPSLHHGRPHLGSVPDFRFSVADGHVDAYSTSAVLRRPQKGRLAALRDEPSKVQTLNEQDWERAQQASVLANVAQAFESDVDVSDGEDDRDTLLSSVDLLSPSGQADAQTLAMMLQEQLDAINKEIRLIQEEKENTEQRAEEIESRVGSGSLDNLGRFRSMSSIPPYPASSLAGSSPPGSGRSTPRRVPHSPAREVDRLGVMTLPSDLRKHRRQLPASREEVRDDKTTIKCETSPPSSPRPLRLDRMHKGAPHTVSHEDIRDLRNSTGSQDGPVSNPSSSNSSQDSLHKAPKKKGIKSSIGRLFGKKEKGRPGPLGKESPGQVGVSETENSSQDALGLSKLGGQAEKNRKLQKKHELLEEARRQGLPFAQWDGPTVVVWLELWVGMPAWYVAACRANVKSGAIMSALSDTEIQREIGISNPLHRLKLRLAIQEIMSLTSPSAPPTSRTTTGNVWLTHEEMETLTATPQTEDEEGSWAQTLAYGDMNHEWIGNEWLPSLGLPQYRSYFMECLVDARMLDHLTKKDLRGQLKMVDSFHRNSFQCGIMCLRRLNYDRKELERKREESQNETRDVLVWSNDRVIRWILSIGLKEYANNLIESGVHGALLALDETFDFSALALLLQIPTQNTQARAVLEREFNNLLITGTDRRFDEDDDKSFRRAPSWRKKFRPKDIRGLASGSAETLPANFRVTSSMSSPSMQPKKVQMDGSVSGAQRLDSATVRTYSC

Substance: liprin-α1 (from UniProt B2RXQ2 1-1266)
- binding: binds

Reference: publication PMC12803835
